Values from PubChem BioAssay AID504764 (Drosophila RNAi Screening Center, 2011).

- Purpose: 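Knock-downs that raise or lower a Notch target reporter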 (primary screen)
- System: Drosophila Kc167 cells
- Reagents: long dsRNA against Drosophila genes
- Duration: about 5 days (4 days dsRNA, then 24 h after transfection)
- Challenge: transfection of constitutively active membrane-tethered Notch lacking the extracellular domain, read 24 h later
- Measurement: 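Firefly luciferase from an E(spl)m3 reporter with active Notch, plus control-promoter and uninduced reporter wells for normalisation; unnormalised counts, duplicate wells a and b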
- Direction: induced reporter light, run 1, well a and induced reporter light, run 1, well b: higher = more light from the Notch target reporter with active Notch; control promoter light, run 1, well a and control promoter light, run 1, well b: higher = more light from the viral control promoter (cell number, transfection, viability); uninduced reporter light, run 1, well a: higher = more light from the Notch target reporter without active Notch
- Active means: 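Wells with low control signal or poorly matching duplicates excluded; duplicates averaged; per source plate, z beyond ±2 for induced/control log2 ratio or beyond ±1.8 for induced/uninduced marks a hit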
- Calls: active = modifier hit (raised or lowered Notch signal); inactive = not a hit
In all, the deposit lists about 22,000 reagents; shown is a random part of those with a known target gene and a result. Of all reagents, 403 (1.9%) got an active call. 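Unnormalised raw counts per well; ratio z-scores behind the hit calls and whether each hit raises or lowers signal are not deposited.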 A number with no mark means an inactive call. The numbers tell different reagents against one gene apart. Not stated in the record: the amount of reagent.

After knock-down of Ubx (Ultrabithorax), the record shows induced reporter light, run 1, well a = 3.17e5; induced reporter light, run 1, well b = 2.85e5; control promoter light, run 1, well a = 2.42e5; control promoter light, run 1, well b = 2.65e5; uninduced reporter light, run 1, well a = 19970.
After knock-down of CG10845 the results were induced reporter light, run 1, well a = 1.83e5; induced reporter light, run 1, well b = 1.63e5; control promoter light, run 1, well a = 2.16e5; control promoter light, run 1, well b = 1.98e5; uninduced reporter light, run 1, well a = 13395.
Depletion of DCTN6-p27 (Dynactin 6, p27 subunit) gave: induced reporter light, run 1, well a = 43915; induced reporter light, run 1, well b = 36205; control promoter light, run 1, well a = 47370; control promoter light, run 1, well b = 38150; uninduced reporter light, run 1, well a = 2245.
Knock-down of Grip (Glutamate receptor interacting protein) #1 gave: induced reporter light, run 1, well a = 23725; induced reporter light, run 1, well b = 19295; control promoter light, run 1, well a = 16235; control promoter light, run 1, well b = 19620; uninduced reporter light, run 1, well a = 6690.
Silencing of Grip (Glutamate receptor interacting protein) #2 came out at: induced reporter light, run 1, well a = 1.45e5; induced reporter light, run 1, well b = 1.70e5; control promoter light, run 1, well a = 3.35e5; control promoter light, run 1, well b = 3.68e5; uninduced reporter light, run 1, well a = 11885.
With knock-down of Sld5, the record shows induced reporter light, run 1, well a = 1.48e5; induced reporter light, run 1, well b = 1.41e5; control promoter light, run 1, well a = 1.54e5; control promoter light, run 1, well b = 1.93e5; uninduced reporter light, run 1, well a = 13395.
After knock-down of Cyp28c1 (Cytochrome P450 28c1) the results were induced reporter light, run 1, well a = 1.07e5; induced reporter light, run 1, well b = 1.16e5; control promoter light, run 1, well a = 2.20e5; control promoter light, run 1, well b = 2.39e5; uninduced reporter light, run 1, well a = 8160.
Against CG7560, the values are induced reporter light, run 1, well a = 98400; induced reporter light, run 1, well b = 82190; control promoter light, run 1, well a = 1.03e5; control promoter light, run 1, well b = 1.07e5; uninduced reporter light, run 1, well a = 6130.
With knock-down of CG15579 the results were induced reporter light, run 1, well a = 1.15e5; induced reporter light, run 1, well b = 1.36e5; control promoter light, run 1, well a = 2.71e5; control promoter light, run 1, well b = 2.14e5; uninduced reporter light, run 1, well a = 8630.
Depletion of Pop1 (POP1 ribonuclease P/MRP subunit) resulted in: induced reporter light, run 1, well a = 2.40e5; induced reporter light, run 1, well b = 2.12e5; control promoter light, run 1, well a = 3.19e5; control promoter light, run 1, well b = 3.44e5; uninduced reporter light, run 1, well a = 15340.
For orb2 #1 the deposit lists induced reporter light, run 1, well a = 1.06e5; induced reporter light, run 1, well b = 83985; control promoter light, run 1, well a = 61875; control promoter light, run 1, well b = 33360; uninduced reporter light, run 1, well a = 7995.
With knock-down of orb2 #2 the results were induced reporter light, run 1, well a = 1.65e5; induced reporter light, run 1, well b = 1.62e5; control promoter light, run 1, well a = 1.90e5; control promoter light, run 1, well b = 1.91e5; uninduced reporter light, run 1, well a = 6570.
Depletion of orb2 #3 came out at: induced reporter light, run 1, well a = 1.26e5; induced reporter light, run 1, well b = 1.37e5; control promoter light, run 1, well a = 1.12e5; control promoter light, run 1, well b = 70785; uninduced reporter light, run 1, well a = 15335.
